# From PubChem BioAssay AID504834 (National Center for Advancing Translational Sciences (NCATS), 2011)
# The campaign covered roughly 320,000 compounds. About 22,000 (6.9%) were called active. Inconclusive results, whose numbers are uncertain, are shown with a selection of clear calls. Calls come from the whole dose curve; as a rule, active = well fitted inhibition curve with a large enough effect; inconclusive = small, poorly fitted or top-dose-only effect, or another doubt; inactive = no such curve, though single readings can be large or run the other way. A potency beside an inconclusive call is a rough fit, not a confirmed value.
# Assay: Primary qHTS for delayed death inhibitors of the malarial parasite plastid, 96 hour incubation
# Settings: P. falciparum luciferase reporter growth; series mostly up to 28.7 µM
# How it was run: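 P. falciparum expressing integrated firefly luciferase grown in erythrocytes (2% hematocrit, 0.05% parasitemia final) with compounds for 96 hours at 37 C, 5% CO2. Growth inhibition read as loss of luminescence after adding luciferase detection reagent.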
# % is set by controls: 0 for no effect and ±100 for the full control effect; potency is the fitted concentration of half-maximal effect.
Structure (SMILES),Potency,"activity change, negative = inhibition"
Cc1ccc2nc(C3CCCCC3)[nH]c2c1,"inconclusive: 18.5 µM [inhibitor, single point]",–
CCN(CC)c1ccc(NC(=O)COc2ccccc2C#N)cc1S(=O)(=O)Nc1ccccc1OC,active: 9.28 µM,–
C/C(CC(=O)Nc1ccccn1)=N\NC(=O)Cc1cccc2ccccc12,inactive,–
COc1cccc(NC(=O)Cc2nnc(SCC(=O)NC3CCCCC3)n2C)c1,inactive,–
CCn1c(CSc2nncn2-c2ccc(OC)cc2)nc2cc(S(=O)(=O)N(C)C)ccc21,"inconclusive: 18.5 µM [inhibitor, single point]",–
COc1ccc(S(=O)(=O)Nc2ccccc2C(=O)N2CCCC2)cc1C,inactive,–
COc1ccc(-n2nc([N+](=O)[O-])c(=NCCC3=CCCCC3)n2O)cc1,"inconclusive: 18.5 µM [inhibitor, single point]",–
CS(=O)(=O)Nc1nnc(SCC(=O)N(c2ccccc2)c2ccccc2)s1,active: 2.62 µM,–
CN(C)NC(=S)NC(=O)C12CC3CC(CC(C3)C1)C2,"inconclusive: 1.65 µM [inhibitor, partial curve, poor fit]",–
Cc1ccc(C(=O)CCC(=O)OCC(=O)N(CC(C)C)c2c(N)n(Cc3ccccc3)c(=O)[nH]c2=O)cc1,inactive,–
Cc1oc(-c2ccccc2F)nc1CS(=O)(=O)CC(=O)NC1CCCC1,inactive,–
CCOc1cc(C=C(C#N)C#N)ccc1Oc1ccc([N+](=O)[O-])cn1,inactive,–
Cc1ccc(SCc2[nH]nc3c2C(c2ccc(C)o2)C(C#N)=C(N)O3)cc1 (configuration not stated),inactive,–
Nc1nc(-c2cccs2)cs1,inactive,–
Cc1cccc(N2CCN(C(=O)CCC(=O)N3CC(C)Oc4ccccc43)CC2)c1C (configuration not stated),inactive,–
CCCC(=O)NC(c1ccccc1OC)c1ccc2cccnc2c1O (configuration not stated),"inconclusive: 3.29 µM [inhibitor, partial curve, poor fit]",–
N=c1sccn1CC(=O)Nc1ccc2c(c1)CCC2,inactive,–
O=c1nc(N/N=C/c2ccccn2)cn[nH]1,–,inactive: -5.96% [at 1.15 µM]
S=C(Nc1ccc(CN2CCCCC2)cc1)Nc1cccc(Cl)c1Cl,inactive,–
CC(C)Cn1c(-c2ccco2)n[nH]c1=S,"inconclusive: 0.828 µM [inhibitor, full curve]",–
Cc1nn(C)c(Cl)c1S(=O)(=O)N[C@@H](c1ccccc1)[C@]1(C)C[C@H]1[C@@H](C)C(=O)Nc1ccc2ccccc2c1,inactive,–
Cc1ccc(N2C(=O)C(O)(C(F)(F)F)C3=C2CC(C)(C)CC3=O)cc1 (configuration not stated),inactive,–
Cc1cc(C(=O)O)c(C)n1Cc1ccncc1,"inconclusive: 4.15 µM [inhibitor, partial curve, poor fit]",–
O=C(CSc1nc2ccccc2o1)N1CCN(c2ccc(Cl)cc2)CC1,"inconclusive: 4.15 µM [inhibitor, single point]",–

Structure (SMILES),Potency,"activity change, negative = inhibition"
CCC1S/C(=N/N=C/c2ccco2)N(Cc2ccccc2C)C1=O (configuration not stated),"inconclusive: 6.57 µM [inhibitor, partial curve, poor fit]",–
CCOc1cccc2sc(Nc3nc4ccc(NC(C)=O)cc4s3)nc12,"inconclusive: 4.65 µM [inhibitor, partial curve, poor fit]",–
CCOc1cc(C2c3c(-c4ccccc4)n[nH]c3C(=O)N2c2ccc(C(=O)O)cc2)ccc1O (configuration not stated),inactive,–
Clc1ccc(CN2CCN(c3ncccn3)CC2)cc1,"inconclusive: 13.1 µM [inhibitor, single point]",–
Fc1ccc(CN2CCN3CCCC3C2C2CCCCC2)cc1F (configuration not stated),"inconclusive: 14.7 µM [inhibitor, single point]",–
FC(F)(F)c1ccccc1NC(=S)N/N=C1\CC2CC=CC12 (configuration not stated),"inconclusive: 13.1 µM [inhibitor, single point]",–
COc1ccc(C(=O)N/N=C/c2cc3ccccc3[nH]c2=S)cc1,active: 13.1 µM,–
CCOC(=O)CNS(=O)(=O)c1ccc(S(=O)(=O)NC2CC2)cc1,"inconclusive: 18.5 µM [inhibitor, single point]",–
O=C(NCCc1ccccn1)C(F)(F)C(F)(F)C(F)(F)C(F)(F)C(F)(F)C(F)F,"inconclusive: 11.7 µM [inhibitor, partial curve, poor fit]",–
COc1ccc(N2CCN(S(=O)(=O)c3cc4c(cc3C)NC(=O)CO4)CC2)cc1,"inconclusive: 18.5 µM [inhibitor, single point]",–
Cc1ccc(OCCCCN2CCCC(C)C2)c([N+](=O)[O-])c1 (configuration not stated),"inconclusive: 3.7 µM [inhibitor, single point]",–
Cc1ccc(C(=O)NC(=S)NCC2CCCO2)cc1 (configuration not stated),"inconclusive: 10.4 µM [inhibitor, single point]",–
CCCCN(CC)CCNc1c(N2CCN(C(=O)OCC)CC2)c(=O)c1=O,"inconclusive: 18.5 µM [inhibitor, single point]",–
O=[N+]([O-])c1nn(-c2ccccc2)[n+]([O-])c1N1CCN(c2ccccc2F)CC1,"inconclusive: 18.5 µM [inhibitor, single point]",–
Cc1ccc(C)c(S(=O)(=O)NC(CC(C)C)C(=O)O)c1 (configuration not stated),inactive,–
COC(=O)n1c(SC)nc2ccccc21,"inconclusive: 10.4 µM [inhibitor, single point]",–
CCc1ccc(NC(=O)COc2ccc(/C=C(/C#N)c3nc4ccccc4[nH]3)cc2OC)cc1,"inconclusive: 18.5 µM [inhibitor, single point]",–
Cc1cccc(NC(=O)C2CCN(S(=O)(=O)c3c(C)c(C)cc(C)c3C)CC2)n1,inactive,–
CC(=O)NCC(=O)NNC1CC(=O)N(c2cccc(Cl)c2)C1=O (configuration not stated),"inconclusive: 10.4 µM [inhibitor, single point]",–
O=C(Nc1cccnc1)/C(N=Nc1c(Cl)cccc1Cl)=C(\O)c1ccccc1,"inconclusive: 16.5 µM [inhibitor, single point]",–
O=C(Nc1ccc(C(=O)O)cc1)Nc1cccc2ccccc12,inactive,–
NC(=O)c1cc([N+](=O)[O-])cc([N+](=O)[O-])c1,"inconclusive: 19 µM [inhibitor, single point]",–
O=[N+]([O-])/C(C(Cl)=C(Cl)Cl)=C(/NC1CC1)Sc1ccccc1,"inconclusive: 9.28 µM [inhibitor, single point]",–

# Grouped by structure: the compounds so far containing a CF3 group (two)
Structure (SMILES),Potency,"activity change, negative = inhibition"
Cc1ccc(N2C(=O)C(O)(C(F)(F)F)C3=C2CC(C)(C)CC3=O)cc1 (configuration not stated),inactive,–
FC(F)(F)c1ccccc1NC(=S)N/N=C1\CC2CC=CC12 (configuration not stated),"inconclusive: 13.1 µM [inhibitor, single point]",–
